Measured values reported in US20220324936 (published 2022).
Non-standard residues stand in square brackets, D forms with d. *: point of attachment. His(Trt) = N[C@@H](Cc1cn(C(c2ccccc2)(c2ccccc2)c2ccccc2)cn1)C(=O)O; Gln(Trt) = N[C@@H](CCC(=O)NC(c1ccccc1)(c1ccccc1)c1ccccc1)C(=O)O; Boc = CC(C)(C)OC(=O)*; tBu = CC(C)(C)*

Assay: general procedure: Fmoc solid-phase peptide synthesis; CTC resin; DIC/OxymaPure
Details: whole synthesis

Which results are given for Boc-[His(Trt)]S(tBu)[Gln(Trt)]G-OH?
crude mass: 2.4 g; crude HPLC purity (HPLC, scale of the general procedure 1 gram of starting resin each): 97%; crude yield (molar yield, scale of the general procedure 1 gram of starting resin each): 91.6%
